Source: US12233106B2, “C-type natriuretic peptide variants to treat skeletal dysplasia in children” (priority 2021, dated 2025)
“And” between values parts separate entries of the source, which are not always exact repeats. Equal entries are not always repeated. Part of at least one peptide drawing is inferred or uncertain, most often the ends.

Experiments:
Type in all cases: in vivo, human
[1] = test system: ACH children 0 to 5 years old; experiment: Phase 2 Study 111-206/208: growth (height Z-score, AGV, body proportion, height) in children with achondroplasia; settings: for Annualized Growth Velocity, Baseline, mean (SD) / Height Z-score, Baseline, mean (SD) / Annualized Growth Velocity, Baseline, mean: before treatment; for Decrease in AGV from Baseline, mean (SD): four Cohort 2 sentinel subjects
[2] = test system: cGMP; experiment: PD marker of CNP bioactivity: urinary cGMP/Cr and plasma cGMP
[3] = test system: CXM (N terminal fragment of collagen X); experiment: PD marker serum CXM; settings: for Serum CXM, Baseline: before treatment
[4] = Cohort 2 sentinels, 6 to <24 months, 15 then 30 μg/kg/day SC, Week 52
[5] = Cohort 2 sentinels, 6 to <24 months, 15 then 30 μg/kg/day SC, Week 78, n=1
[6] = Cohort 2 sentinels, Week 104 (N=3)
[7] = Cohort 3 sentinels, 0 to <6 months, 30 μg/kg SC, Baseline (before treatment)
[8] = Cohort 3 sentinels, 0 to <6 months, 30 μg/kg SC, Week 26, n=1
[9] = FAS (randomized), Cohort 1, vosoritide N=15
[10] = FAS (randomized), Cohort 2, vosoritide N=8
[11] = FAS (randomized), Cohort 3, vosoritide N=9
[12] = FAS (randomized), Overall, vosoritide N=32
[13] = Overall, vosoritide n=43 vs placebo n=32, Week 52
[14] = Cohort 1 sentinels (24 to <60 months), 15 μg/kg, Day 1
[15] = Cohort 1 sentinels (24 to <60 months), 15 μg/kg, Week 13
[16] = Cohort 1 sentinels (24 to <60 months), 15 μg/kg, Week 26
[17] = Cohort 1 sentinels (24 to <60 months), 15 μg/kg, Week 39
[18] = Cohort 1 sentinels (24 to <60 months), 15 μg/kg, Week 52
[19] = Cohort 2 sentinels (6 months to <24 months), 15 μg/kg, Day 1
[20] = Cohort 2 sentinels (6 months to <24 months), 15 μg/kg, Week 13, n=1
[21] = Cohort 2 sentinels (6 months to <24 months), 15 μg/kg, Week 26, n=1
[22] = Cohort 2 sentinels (6 months to <24 months), 30 μg/kg, Week 26, n=3
[23] = Cohort 2 sentinels (6 months to <24 months), 30 μg/kg, Week 39, n=1

CC[C@H](C)[C@@H]1NC(=O)[C@H](CCCNC(=N)N)NC(=O)[C@H](CC(=O)O)NC(=O)[C@H](CC(C)C)NC(=O)[C@H](CCCCN)NC(=O)[C@H](CC(C)C)NC(=O)CNC(=O)[C@H](Cc2ccccc2)NC(=O)[C@@H](NC(=O)CNC(=O)[C@H](CCCCN)NC(=O)[C@H](CO)NC(=O)[C@H](CC(C)C)NC(=O)CNC(=O)[C@H](CCCCN)NC(=O)[C@H](CCCCN)NC(=O)[C@H](CC(N)=O)NC(=O)[C@H](C)NC(=O)CNC(=O)[C@H](CCCCN)NC(=O)[C@H](Cc2ccc(O)cc2)NC(=O)[C@H](CCCCN)NC(=O)[C@H](CCCNC(=N)N)NC(=O)[C@H](C)NC(=O)[C@H](CC(N)=O)NC(=O)[C@@H]2CCCN2C(=O)[C@H](Cc2c[nH]cn2)NC(=O)[C@H](CCC(=O)O)NC(=O)[C@H](CCC(N)=O)NC(=O)CNC(=O)[C@@H]2CCCN2)CSSC[C@@H](C(=O)O)NC(=O)CNC(=O)[C@H](CC(C)C)NC(=O)CNC(=O)[C@H](CO)NC(=O)[C@H](CCSC)NC(=O)[C@H](CO)NC(=O)CNC1=O [vosoritide]
Height Z-score [1, 4]: −3.88 ± 0.35 (n = 4) | Upper to lower body segment ratio [1, 4]: 2.37 ± 0.21 (n = 4) | Upper to lower body segment ratio, change from baseline [1, 4]: −0.19 (0.28) and −0.19 ± 0.28 (n = 4) | AGV [1, 5]: 9.39 (n = 1) cm/year | AGV, change from baseline [1, 5]: −3.26 (n = 1) cm/year | Height Z-score [1, 5]: −3.35 (n = 1) | Height Z-score, change from baseline [1, 5]: 0.78 (n = 1) | Upper to lower body segment ratio [1, 5]: 2.30 (n = 1) | Upper to lower body segment ratio, change from baseline [1, 5]: −0.29 (n = 1) | Change in standing height from baseline, mean (SD) ([1]; Cohort 2 sentinels, 15 then 30 μg/kg/day SC, Week 26): 5.15 (1.01) cm | Change in standing height from baseline, mean (SD) ([1]; Cohort 2 sentinels, 15 then 30 μg/kg/day SC, Week 52): 9.22 (0.98) cm | Height Z-score, mean (SD) change from baseline ([1]; Cohort 2 sentinels, Week 52 (N=4)): +0.84 (0.25) SDS | Change in standing height from baseline, mean (SD) ([1]; Cohort 2 sentinels, Week 104): 15.76 (1.42) cm | Height Z-score, mean (SD) change from baseline [1, 6]: +0.69 (0.55) SDS | Upper to lower body segment ratio, mean (SD) change from baseline [1, 6]: −0.33 (0.20) | AGV, mean (SD) ([1]; Cohort 2 sentinels, second year of treatment): 6.55 (0.38) cm/year | Decrease in AGV from Baseline ([1]; Cohort 3 sentinel subjects, 26 weeks of treatment): 5.03 cm/year | AGV [1, 7]: 24.78 cm/year and 24.78 ± 5.39 (n = 3) cm/year | Height Z-score [1, 7]: −4.18 (0.77) and −4.18 ± 0.77 (n = 3) | Upper to lower body segment ratio [1, 7]: 3.12 ± 0.37 (n = 3) | AGV [1, 8]: 14.43 (n = 1) cm/year | AGV, change from baseline [1, 8]: −5.03 (n = 1) cm/year | Height Z-score [1, 8]: −4.39 (n = 1) | Upper to lower body segment ratio [1, 8]: 3.00 (n = 1) | Annualized Growth Velocity, Baseline, mean (SD) [1, 9]: 4.74 (1.68) | Height Z-score, Baseline, mean (SD) [1, 9]: −4.27 (0.81) | Annualized Growth Velocity, Baseline, mean (SD) [1, 10]: 11.51 (4.66) | Height Z-score, Baseline, mean (SD) [1, 10]: −3.39 (0.84) | Annualized Growth Velocity, Baseline, mean [1, 11]: 21.19 | Height Z-score, Baseline, mean (SD) [1, 11]: −3.34 (0.34) | Annualized Growth Velocity, Baseline, mean (SD) [1, 12]: 11.06 (1.34) | Height Z-score, Baseline, mean (SD) [1, 12]: −3.79 (0.17) | Annualized Growth Velocity, Baseline, mean (SD) ([1]; FAS, Cohort 1, vosoritide N=19): 5.07 (1.74) | Height Z-score, Baseline, mean (SD) ([1]; FAS, Cohort 1, vosoritide N=19): −4.32 (0.73) | Annualized Growth Velocity, Baseline, mean (SD) ([1]; FAS, Cohort 2, vosoritide N=12): 11.66 (4.61) | Height Z-score, Baseline, mean (SD) ([1]; FAS, Cohort 2, vosoritide N=12): −3.67 (0.83) | Annualized Growth Velocity, Baseline, mean ([1]; FAS, Cohort 3, vosoritide N=12): 22.09 | Height Z-score, Baseline, mean (SD) ([1]; FAS, Cohort 3, vosoritide N=12): −3.39 (0.28) | Annualized Growth Velocity, Baseline, mean (SD) ([1]; FAS, Overall, vosoritide N=43): 11.66 (1.19) | Height Z-score, Baseline, mean (SD) ([1]; FAS, Overall, vosoritide N=43): −3.88 (0.14) | Change of upper-to-lower body segment ratio compared to placebo [1, 13]: −0.06 | Increase of AGV compared to placebo [1, 13]: 0.92 cm/year | Increase of height Z-score compared to placebo [1, 13]: 0.30 SD | Decrease in AGV from Baseline, mean (SD) ([1]; 26 weeks of treatment): 1.53 (3.03) cm/year | Decrease in AGV from Baseline, mean (SD) ([1]; Week 52): 2.75 (1.65) cm/year | Growth measures (head circumference, arm span, arm, leg, lower body, tibial lengths), change from baseline ([1]; sentinels, Cohort 1 and 2): consistent positive improvements in growth | Body proportion ratios of the extremities, change from baseline ([1]; sentinels, Weeks 26 and 52): no clinically significant changes | Upper to lower body ratio over time ([1]; sentinels, both cohorts (1 and 2), initial checkpoint): no change | Urinary cGMP/Cr, change from pre-dose at 2-4 hr post dose [2, 14]: 4880 ± 6710 pmol cGMP/mg Cr | Urinary cGMP/Cr, pre-dose [2, 14]: 4620 ± 1730 pmol cGMP/mg Cr | Urinary cGMP/Cr, change from pre-dose at 2-4 hr post dose [2, 15]: 2450 ± 1130 pmol cGMP/mg Cr | Urinary cGMP/Cr, pre-dose [2, 15]: 3350 ± 515 pmol cGMP/mg Cr | Urinary cGMP/Cr, change from pre-dose at 2-4 hr post dose [2, 16]: 6290 ± 4790 pmol cGMP/mg Cr | Urinary cGMP/Cr, pre-dose [2, 16]: 3290 ± 917 pmol cGMP/mg Cr | Urinary cGMP/Cr, change from pre-dose at 2-4 hr post dose [2, 17]: 7620 ± 4220 pmol cGMP/mg Cr | Urinary cGMP/Cr, pre-dose [2, 17]: 3420 ± 1230 pmol cGMP/mg Cr | Urinary cGMP/Cr, change from pre-dose at 2-4 hr post dose [2, 18]: 4820 ± 4110 pmol cGMP/mg Cr | Urinary cGMP/Cr, pre-dose [2, 18]: 3290 ± 400 pmol cGMP/mg Cr | Urinary cGMP/Cr, change from pre-dose at 2-4 hr post dose [2, 19]: −1260 ± 2230 pmol cGMP/mg Cr | Urinary cGMP/Cr, pre-dose [2, 19]: 6770 ± 3440 pmol cGMP/mg Cr | Urinary cGMP/Cr, change from pre-dose at 2-4 hr post dose [2, 20]: −1260 pmol cGMP/mg Cr | Urinary cGMP/Cr, pre-dose [2, 20]: 9020 pmol cGMP/mg Cr | Urinary cGMP/Cr, change from pre-dose at 2-4 hr post dose [2, 21]: 6040 pmol cGMP/mg Cr | Urinary cGMP/Cr, pre-dose [2, 21]: 4940 pmol cGMP/mg Cr | Urinary cGMP/Cr, pre-dose ([2]; Cohort 2 sentinels (6 months to <24 months), 30 μg/kg, Week 13, n=1): 3340 pmol cGMP/mg Cr | Urinary cGMP/Cr, change from pre-dose at 2-4 hr post dose [2, 22]: 5090 ± 5140 pmol cGMP/mg Cr | Urinary cGMP/Cr, pre-dose [2, 22]: 5600 ± 1120 pmol cGMP/mg Cr | Urinary cGMP/Cr, change from pre-dose at 2-4 hr post dose [2, 23]: 4910 pmol cGMP/mg Cr | Urinary cGMP/Cr, pre-dose [2, 23]: 8900 pmol cGMP/mg Cr | Post-dose plasma cGMP concentrations ([2]; constant over 52 weeks, similar to older age group): Increases | Serum CXM levels averaged across all visits, versus older children (study 111-301) ([3]; Cohort 1, 19 vosoritide-treated subjects aged ≥24 to <60 months, blinded analysis): roughly similar | Serum CXM, change from baseline ([3]; Cohort 1 sentinels (24 to <60 months), 15 μg/kg, Day 8, sampled prior to administration): 3645 ± 4392 (4) pg/mL | Serum CXM, change from baseline ([3]; Cohort 1 sentinels (24 to <60 months), 15 μg/kg, Week 6, sampled prior to administration): 10325 ± 7962 (4) pg/mL | Serum CXM, change from baseline ([3]; Cohort 1 sentinels (24 to <60 months), 15 μg/kg, Week 20, sampled prior to administration): 5750 ± 2859 (4) pg/mL | Serum CXM, change from baseline ([3]; Cohort 1 sentinels (24 to <60 months), 15 μg/kg, Week 39, sampled prior to administration): 4880 ± 3724 (4) pg/mL | Serum CXM, Baseline ([3]; Cohort 1 sentinels (24 to <60 months), 15 μg/kg): 8050 ± 1017 (4) pg/mL | Serum CXM, change from baseline ([3]; Cohort 2 sentinels (6 months to <24 months), 15 μg/kg, Day 8, sampled prior to administration): 5180 ± 2963 (4) pg/mL | Serum CXM, change from baseline ([3]; Cohort 2 sentinels (6 months to <24 months), 15 μg/kg, Week 6, sampled prior to administration): 2325 ± 1633 (4) pg/mL | Serum CXM, Baseline ([3]; Cohort 2 sentinels (6 months to <24 months), 15 μg/kg): 8920 ± 3662 (4) pg/mL | Serum CXM, change from baseline ([3]; Cohort 2 sentinels (6 months to <24 months), 30 μg/kg, Week 20, individual values n=2, listed as BMN 111): -2790 pg/mL and 6210 pg/mL | Serum CXM (mean and median) compared to baseline and placebo ([3]; throughout the study, up to 39 weeks, values overlapped with placebo): increased
